According to patent US20150065444A1:
No constants are given. Whether binding was seen depends on the method and setting. Some results given as binding are weak or reduced against the parent protein; the word gives no strength. For some of these results: Tags and fused reporters may be left off the sequences shown.

Sequences of proteins named here, by UniProt entry; tags and fusion partners are left off.
UniProt P12004: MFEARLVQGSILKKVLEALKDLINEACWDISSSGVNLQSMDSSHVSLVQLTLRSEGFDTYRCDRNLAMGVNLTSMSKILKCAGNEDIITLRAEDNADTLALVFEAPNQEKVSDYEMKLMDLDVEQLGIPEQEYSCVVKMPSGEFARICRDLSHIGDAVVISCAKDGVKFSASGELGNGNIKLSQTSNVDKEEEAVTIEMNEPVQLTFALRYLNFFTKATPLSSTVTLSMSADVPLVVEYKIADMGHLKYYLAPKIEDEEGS
UniProt Q9NS91: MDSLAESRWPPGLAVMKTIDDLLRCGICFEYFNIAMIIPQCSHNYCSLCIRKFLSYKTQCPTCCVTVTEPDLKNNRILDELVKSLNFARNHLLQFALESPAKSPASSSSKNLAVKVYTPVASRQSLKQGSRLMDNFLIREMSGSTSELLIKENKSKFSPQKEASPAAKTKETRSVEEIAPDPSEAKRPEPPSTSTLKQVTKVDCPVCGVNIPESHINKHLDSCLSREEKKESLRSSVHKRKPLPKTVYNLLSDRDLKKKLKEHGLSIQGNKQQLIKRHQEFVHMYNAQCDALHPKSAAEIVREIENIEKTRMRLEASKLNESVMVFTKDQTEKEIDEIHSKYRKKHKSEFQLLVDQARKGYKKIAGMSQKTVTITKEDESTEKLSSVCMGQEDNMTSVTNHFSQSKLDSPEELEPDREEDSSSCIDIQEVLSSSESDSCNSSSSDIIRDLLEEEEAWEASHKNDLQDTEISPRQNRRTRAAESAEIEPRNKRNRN

Tests used:
[1] = target: T1, Purified recombinant 6x His-tagged Arm1 (human) (UniProt Q9H993); assay: GST-Rad18 pull-down of purified proteins, immunoblot (FIG. 4c)
T1 sequence: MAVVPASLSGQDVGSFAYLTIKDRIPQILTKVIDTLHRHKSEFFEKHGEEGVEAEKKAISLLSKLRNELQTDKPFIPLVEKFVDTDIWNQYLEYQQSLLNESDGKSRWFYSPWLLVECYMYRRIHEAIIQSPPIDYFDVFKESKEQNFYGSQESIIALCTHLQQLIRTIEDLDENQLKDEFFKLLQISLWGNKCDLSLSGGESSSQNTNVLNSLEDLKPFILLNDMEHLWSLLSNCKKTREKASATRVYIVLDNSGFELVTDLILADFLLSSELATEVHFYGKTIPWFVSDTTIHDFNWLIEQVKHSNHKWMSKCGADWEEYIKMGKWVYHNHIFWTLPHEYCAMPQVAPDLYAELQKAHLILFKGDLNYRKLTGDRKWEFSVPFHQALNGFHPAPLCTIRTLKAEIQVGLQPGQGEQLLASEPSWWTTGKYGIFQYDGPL

[2] = target: Purified recombinant PCNA (UniProt P12004); assay: as above
[3] = target: T1, Purified recombinant 6x His-tagged Arm1 (human); assay: recombinant PCNA incubated with or without recombinant Arm1, SAM or sinefungin, then glutathione Sepharose bound GST-Rad18; SDS-PAGE and immunoblot
[4] = target: Purified recombinant PCNA (UniProt P12004); assay: as above

Measured: binding

GST-Rad18 (from UniProt Q9NS91 1-495)
binds: all assays above
